Test results taken from the supplement of paper PMC7830784.
Where a name gives a salt, the structure may show the parent alone. Some of the results follow. This data set is noisy: repeats of one test often differ as much as different tests do.

Tested on: Brugia pahangi adult female
Experiment: motility inhibition on day 3 relative to DMSO vehicle; higher = more active
Settings: 10 µM; 3 days

Row | SMILES | motility inhibition on day 3
1 | C[C@]12CC[C@@H]3c4ccc(OC(=O)c5ccccc5)cc4CC[C@H]3[C@@H]1CC[C@@H]2O [estradiol benzoate] | 28.4%
2 | CN(C)CCCN1c2ccccc2Sc2ccc(C(F)(F)F)cc21 [triflupromazine hydrochloride] | 7.04%
3 | CCN(CC)CCOC(=O)C1(C2CCCCC2)CCCCC1 [dicyclomine hydrochloride] | 20.2%
4 | CCCCOCCOCCOCc1cc2c(cc1CCC)OCO2 [piperonyl butoxide] | 16.4%
5 | CC(N/C(=N\C#N)Nc1ccncc1)C(C)(C)C (configuration not stated) [Pinacidil] | < 0%
6 | CC1(C)OC(=O)C(OCC2CC2)=C1c1ccc(S(C)(=O)=O)cc1 [firocoxib] | < 0%
7 | CCCCC(O)c1ccccc1 (configuration not stated) [fenipentol] | < 0%
8 | CC(=O)Oc1ccccc1C(=O)Nc1ncc([N+](=O)[O-])s1 [nitazoxanide] | 84.8%
9 | Oc1cc(O)c2c(c1)O[C@H](c1ccc(O)c(O)c1)[C@@H](O)C2 [cianidanol] | 12.5%
10 | CO[C@H]1C[C@H](O[C@H]2[C@H](C)O[C@@H](O[C@@H]3/C(C)=C/C[C@@H]4C[C@@H](C[C@]5(C=C[C@H](C)[C@@H](C6CCCCC6)O5)O4)OC(=O)[C@@H]4C=C(C)[C@@H](O)[C@H]5OC/C(=C\C=C\[C@@H]3C)[C@]54O)C[C@@H]2OC)O[C@@H](C)[C@@H]1O [doramectin] | 44.9%
11 | O=C1c2c(O)cccc2Cc2cccc(O)c21 [anthralin] | < 0%
12 | CC[N+](C)(CC)CCOC(=O)C(O)(c1ccccc1)C1CCCCC1 (configuration not stated) [oxyphenonium bromide] | 7%
13 | O=C(O)c1cn(-c2ccc(F)cc2)c2cc(N3CCNCC3)c(F)cc2c1=O [sarafloxacin hydrochloride] | < 0%
14 | C[C@@H]1C[C@H]2[C@@H]3C[C@H](F)C4=CC(=O)C=C[C@]4(C)[C@@]3(F)[C@@H](O)C[C@]2(C)[C@@]1(O)C(=O)CO [flumethasone] | < 0%
15 | O=C(O)Cc1ccc(-c2ccccc2)cc1 [felbinac] | 0.924%
16 | CC(=O)OCC(=O)[C@@]1(O)[C@@H](C)C[C@H]2[C@@H]3CCC4=CC(=O)C=C[C@]4(C)[C@@]3(F)[C@@H](O)C[C@@]21C [betamethasone acetate] | 0.848%
17 | Oc1ccc2ccccc2c1 [beta-naphthol] | 69.2%
18 | N=C(NCCCCCCNC(=N)NC(=N)Nc1ccc(Cl)cc1)NC(=N)Nc1ccc(Cl)cc1 [chlorhexidine] | 75.1%
19 | NCc1ccccc1CC(=O)N[C@@H]1C(=O)N2C(C(=O)O)=C(CSc3nnnn3CC(=O)O)CS[C@H]12 [ceforanide] | 1.7%
20 | COc1c2occc2cc2ccc(=O)oc12 [methoxsalen] | 26.5%
21 | CC(C)CC(N)=O [isovaleramide] | 7.72%
22 | CN1CCN(C2=Nc3ccccc3Oc3ccc(Cl)cc32)CC1 [Loxapine succinate] | 8.58%
23 | Clc1ccc(CCC(Cn2ccnc2)Sc2c(Cl)cccc2Cl)cc1 (configuration not stated) [butoconazole] | < 0%
24 | N#Cc1ccc(C(c2ccc(C#N)cc2)n2cncn2)cc1 [letrozole] | 4.66%

Row | SMILES | motility inhibition on day 3
25 | C[N+]1(C)CCC(OC(=O)C(O)(c2ccccc2)C2CCCC2)C1 (configuration not stated) [glycopyrrolate] | 2.28%
26 | NNCCc1ccccc1 [phenelzine sulfate] | 20.4%
27 | Cc1nccnc1N1CCCCC1 [modaline sulfate] | 9.1%
28 | C=C1CC[C@H](O)C/C1=C/C=C1\CCC[C@]2(C)[C@@H]([C@H](C)CCCC(C)C)CC[C@@H]12 [cholecalciferol] | 2.89%
29 | CC(Cc1cccc(C(F)(F)F)c1)NCCOC(=O)c1ccccc1 (configuration not stated) [benfluorex hydrochloride] | < 0%
30 | CC(=O)S[C@@H]1CC2=CC(=O)CC[C@]2(C)[C@H]2CC[C@@]3(C)[C@@H](CC[C@@]34CCC(=O)O4)[C@H]12 [spironolactone] | < 0%
31 | CCCc1cc(C(N)=S)ccn1 [protionamide] | < 0%
32 | CO[C@H]1/C=C/O[C@@]2(C)Oc3c(C)c(O)c4c(O)c(c(/C=N/N5CCN(C6CCCC6)CC5)c(O)c4c3C2=O)NC(=O)/C(C)=C\C=C\[C@H](C)[C@H](O)[C@@H](C)[C@@H](O)[C@@H](C)[C@H](OC(C)=O)[C@@H]1C | 1.44%
33 | N=C(N)NC(=N)NCCc1ccccc1 [phenformin hydrochloride] | 4.92%
34 | CN1CCC(=C2c3ccccc3C=Cc3ccccc32)CC1 [Cyproheptadine hydrochloride] | 7.54%
35 | CN1CCN(CC/C=C2/c3ccccc3Sc3ccc(S(=O)(=O)N(C)C)cc32)CC1 [thiothixene] | < 0%
36 | C[C@H]1O[C@H](O[C@H]2[C@H](O)[C@@H](O)[C@@H](O[C@H]3[C@H](O)[C@@H](O)C(O)O[C@@H]3CO)O[C@@H]2CO)[C@H](O)[C@@H](O)[C@@H]1N[C@H]1C=C(CO)[C@@H](O)[C@H](O)[C@H]1O (some centres not stated) [acarbose] | 1.33%
37 | CC(C)(CO)[C@@H](O)C(=O)NCCC(=O)NCCSSCCNC(=O)CCNC(=O)[C@H](O)C(C)(C)CO [pantethine] | 0.236%
38 | C[C@@H](O)CN(CCN(C[C@@H](C)O)C[C@@H](C)O)C[C@@H](C)O [editol] | 3.03%
39 | Cc1cn[nH]c1 [fomepizole hydrochloride] | 1.97%
40 | OCCN1CCN(CC/C=C2/c3ccccc3Sc3ccc(C(F)(F)F)cc32)CC1 [(E/Z)-Flupentixol Dihydrochloride] | 4.85%
41 | CC(=O)[C@@]1(O)CC[C@H]2[C@@H]3C=C(Cl)C4=CC(=O)[C@@H]5C[C@@H]5[C@]4(C)[C@H]3CC[C@@]21C [cyproterone] | < 0%
42 | Nc1[nH]cnc2ncnc1-2 [adenine] | < 0%
43 | CC[N+](C)(C)c1cccc(O)c1 [edrophonium chloride] | 9.6%
44 | NCCc1c[nH]cn1 [Histamine dihydrochloride] | 8.42%
45 | OC(Cn1cncn1)(Cn1cncn1)c1ccc(F)cc1F [fluconazole] | < 0%
46 | CCCOc1cc(N)ccc1C(=O)OCCN(CC)CC [propoxycaine hydrochloride] | < 0%
47 | CC(=O)OCC(=O)[C@@]1(O)CC[C@H]2[C@@H]3CCC4=CC(=O)CC[C@]4(C)[C@H]3[C@@H](O)C[C@@]21C [hydrocortisone acetate] | 28.5%

Entries listed so far that have a CF3 group (3):
Row | SMILES | motility inhibition on day 3
2 | CN(C)CCCN1c2ccccc2Sc2ccc(C(F)(F)F)cc21 [triflupromazine hydrochloride] | 7.04%
29 | CC(Cc1cccc(C(F)(F)F)c1)NCCOC(=O)c1ccccc1 (configuration not stated) [benfluorex hydrochloride] | < 0%
40 | OCCN1CCN(CC/C=C2/c3ccccc3Sc3ccc(C(F)(F)F)cc32)CC1 [(E/Z)-Flupentixol Dihydrochloride] | 4.85%
